Conditions: human, microsomes, 1 h, 3 μM
Procedure: Microsome stability is determined in human, rat, and mouse, liver microsomes.
Compound at 3 μM final concentration along with 0.5 mg/mL microsome protein and 1 mM NADPH was incubated for 0, 5, 15, 30 and 60 min. As a negative control, test compound is incubated with microsomes in the absence of NADPH. Samples are quenched with methanol and centrifuged for 25 min at 2500 rpm to precipitate proteins. Supernatants are analyzed (N=3) by LC-MS./MS. The ln peak area ratio (compound peak area/internal standard peak area) is plotted against time and the gradient of the line determined the elimination rate constant [k=(−1)(slope)].
R^2 is the correlation coefficient of the linear regression for the determination of kinetic constant. T1/2 is the half life and CLint (mic) is the intrinsic clearance. CLint(liver)=CLint (mic)*mg microsomal protein/g liver weight*g liver weight/kg body weight. Liver weight/kg body weight is 20 g/kg for human.

SMILES: CCCNCC(O)COc1ccccc1C(=O)CCc1ccccc1 (stereo not shown) [Propafenone]
- Remaining (T = 60 min): 0.2%

From patent US12473266B2, “Benzoxazole and related compounds useful as chaperone-mediated autophagy modulators” (Albert Einstein College of Medicine, priority 2018, dated 2025)
